This is an account of results in the supplement of paper PMC12067093, “Discovery and optimisation of a covalent ligand for TRIM25 and its application to targeted protein ubiquitination” (Chemical Science, 2025).

The chains behind the UniProt entries cited, without tags or fusion partners. Where a name states a change or a piece, a line headed by the entry shows the natural chain unless it says otherwise.
UniProt O14980, whole entry, looked up: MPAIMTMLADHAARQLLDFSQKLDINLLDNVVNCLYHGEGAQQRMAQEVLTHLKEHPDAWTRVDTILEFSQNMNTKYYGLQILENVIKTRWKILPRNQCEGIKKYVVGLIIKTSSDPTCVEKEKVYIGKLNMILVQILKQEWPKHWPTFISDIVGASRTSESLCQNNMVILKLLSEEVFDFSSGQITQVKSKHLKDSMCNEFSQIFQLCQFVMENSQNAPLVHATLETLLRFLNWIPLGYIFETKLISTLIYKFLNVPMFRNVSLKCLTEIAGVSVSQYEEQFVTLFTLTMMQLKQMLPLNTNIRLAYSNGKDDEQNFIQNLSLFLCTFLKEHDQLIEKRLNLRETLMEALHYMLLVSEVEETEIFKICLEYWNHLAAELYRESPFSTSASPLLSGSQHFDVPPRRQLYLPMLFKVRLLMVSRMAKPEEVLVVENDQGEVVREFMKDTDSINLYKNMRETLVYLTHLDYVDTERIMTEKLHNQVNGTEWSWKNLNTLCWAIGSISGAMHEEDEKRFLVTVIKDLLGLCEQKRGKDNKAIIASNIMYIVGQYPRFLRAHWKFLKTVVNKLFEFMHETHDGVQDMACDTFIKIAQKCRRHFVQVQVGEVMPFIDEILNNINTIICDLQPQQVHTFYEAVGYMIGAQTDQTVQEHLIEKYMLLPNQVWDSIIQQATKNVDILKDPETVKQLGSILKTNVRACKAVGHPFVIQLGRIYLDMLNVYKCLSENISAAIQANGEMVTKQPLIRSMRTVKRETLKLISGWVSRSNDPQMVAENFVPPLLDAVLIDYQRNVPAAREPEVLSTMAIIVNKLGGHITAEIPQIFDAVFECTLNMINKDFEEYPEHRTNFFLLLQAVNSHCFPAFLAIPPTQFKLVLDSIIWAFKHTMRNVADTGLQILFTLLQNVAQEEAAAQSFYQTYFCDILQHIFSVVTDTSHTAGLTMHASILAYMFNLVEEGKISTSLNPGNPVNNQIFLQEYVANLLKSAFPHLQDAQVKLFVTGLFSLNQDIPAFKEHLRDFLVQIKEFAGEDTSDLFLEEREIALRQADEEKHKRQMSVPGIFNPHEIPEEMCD
UniProt Q9NUD5: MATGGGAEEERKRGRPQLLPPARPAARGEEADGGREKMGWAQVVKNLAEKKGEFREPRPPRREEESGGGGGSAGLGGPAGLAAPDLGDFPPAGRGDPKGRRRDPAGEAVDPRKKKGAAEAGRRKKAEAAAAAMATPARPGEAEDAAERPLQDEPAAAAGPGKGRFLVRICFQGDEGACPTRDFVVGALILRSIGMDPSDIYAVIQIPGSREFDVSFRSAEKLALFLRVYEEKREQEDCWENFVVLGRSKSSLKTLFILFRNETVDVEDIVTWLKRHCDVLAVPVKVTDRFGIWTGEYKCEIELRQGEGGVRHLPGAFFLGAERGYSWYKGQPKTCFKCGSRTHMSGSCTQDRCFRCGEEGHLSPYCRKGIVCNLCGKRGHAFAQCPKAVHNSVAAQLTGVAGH
UniProt O60293: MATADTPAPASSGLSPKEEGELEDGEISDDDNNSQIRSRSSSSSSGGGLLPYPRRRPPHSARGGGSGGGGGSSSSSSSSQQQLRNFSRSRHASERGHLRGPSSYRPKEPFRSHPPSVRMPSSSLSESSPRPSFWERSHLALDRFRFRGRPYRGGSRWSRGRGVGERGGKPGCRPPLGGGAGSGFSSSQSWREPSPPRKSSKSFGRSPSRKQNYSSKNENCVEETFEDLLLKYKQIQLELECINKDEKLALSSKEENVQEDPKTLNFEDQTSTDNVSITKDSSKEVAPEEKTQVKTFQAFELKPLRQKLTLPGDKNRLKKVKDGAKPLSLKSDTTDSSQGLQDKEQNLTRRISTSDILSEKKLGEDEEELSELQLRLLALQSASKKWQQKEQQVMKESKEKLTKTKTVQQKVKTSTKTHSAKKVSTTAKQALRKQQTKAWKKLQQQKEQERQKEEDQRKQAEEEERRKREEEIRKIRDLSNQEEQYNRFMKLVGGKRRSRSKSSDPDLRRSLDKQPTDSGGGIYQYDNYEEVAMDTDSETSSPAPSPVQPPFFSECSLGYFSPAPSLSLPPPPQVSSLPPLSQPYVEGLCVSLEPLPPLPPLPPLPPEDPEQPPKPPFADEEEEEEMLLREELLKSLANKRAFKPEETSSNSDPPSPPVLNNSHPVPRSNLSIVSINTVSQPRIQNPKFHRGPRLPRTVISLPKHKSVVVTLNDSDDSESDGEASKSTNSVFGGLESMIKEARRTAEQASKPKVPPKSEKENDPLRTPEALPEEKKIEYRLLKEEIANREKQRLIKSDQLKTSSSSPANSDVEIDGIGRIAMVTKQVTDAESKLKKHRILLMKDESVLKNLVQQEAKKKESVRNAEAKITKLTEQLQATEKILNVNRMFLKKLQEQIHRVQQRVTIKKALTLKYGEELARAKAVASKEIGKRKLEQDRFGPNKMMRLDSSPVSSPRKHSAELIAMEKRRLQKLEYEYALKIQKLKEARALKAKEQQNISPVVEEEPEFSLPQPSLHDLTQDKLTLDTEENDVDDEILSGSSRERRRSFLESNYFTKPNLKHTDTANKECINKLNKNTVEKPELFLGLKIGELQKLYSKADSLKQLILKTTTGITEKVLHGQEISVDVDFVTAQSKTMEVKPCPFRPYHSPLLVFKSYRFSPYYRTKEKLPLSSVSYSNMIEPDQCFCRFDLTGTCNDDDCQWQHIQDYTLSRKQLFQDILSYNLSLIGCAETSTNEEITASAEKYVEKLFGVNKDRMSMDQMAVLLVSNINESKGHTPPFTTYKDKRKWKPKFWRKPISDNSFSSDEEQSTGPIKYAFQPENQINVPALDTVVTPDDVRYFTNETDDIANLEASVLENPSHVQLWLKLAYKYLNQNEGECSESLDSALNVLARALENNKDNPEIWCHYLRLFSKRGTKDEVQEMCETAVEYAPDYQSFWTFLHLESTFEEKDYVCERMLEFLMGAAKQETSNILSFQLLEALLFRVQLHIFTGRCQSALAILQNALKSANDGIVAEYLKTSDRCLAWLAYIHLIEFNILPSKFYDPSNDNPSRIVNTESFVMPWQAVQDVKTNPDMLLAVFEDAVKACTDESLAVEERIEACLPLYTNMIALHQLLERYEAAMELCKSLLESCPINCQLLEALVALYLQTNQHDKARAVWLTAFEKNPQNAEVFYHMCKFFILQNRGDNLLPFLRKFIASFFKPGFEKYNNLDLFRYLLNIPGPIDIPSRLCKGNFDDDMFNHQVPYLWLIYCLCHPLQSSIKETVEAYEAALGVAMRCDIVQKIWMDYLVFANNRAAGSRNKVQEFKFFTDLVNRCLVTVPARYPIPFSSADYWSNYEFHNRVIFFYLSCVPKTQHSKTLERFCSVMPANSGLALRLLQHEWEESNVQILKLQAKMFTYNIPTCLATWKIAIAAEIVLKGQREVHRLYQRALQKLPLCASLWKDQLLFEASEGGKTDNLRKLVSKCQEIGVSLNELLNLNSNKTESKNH
UniProt Q9HAV4: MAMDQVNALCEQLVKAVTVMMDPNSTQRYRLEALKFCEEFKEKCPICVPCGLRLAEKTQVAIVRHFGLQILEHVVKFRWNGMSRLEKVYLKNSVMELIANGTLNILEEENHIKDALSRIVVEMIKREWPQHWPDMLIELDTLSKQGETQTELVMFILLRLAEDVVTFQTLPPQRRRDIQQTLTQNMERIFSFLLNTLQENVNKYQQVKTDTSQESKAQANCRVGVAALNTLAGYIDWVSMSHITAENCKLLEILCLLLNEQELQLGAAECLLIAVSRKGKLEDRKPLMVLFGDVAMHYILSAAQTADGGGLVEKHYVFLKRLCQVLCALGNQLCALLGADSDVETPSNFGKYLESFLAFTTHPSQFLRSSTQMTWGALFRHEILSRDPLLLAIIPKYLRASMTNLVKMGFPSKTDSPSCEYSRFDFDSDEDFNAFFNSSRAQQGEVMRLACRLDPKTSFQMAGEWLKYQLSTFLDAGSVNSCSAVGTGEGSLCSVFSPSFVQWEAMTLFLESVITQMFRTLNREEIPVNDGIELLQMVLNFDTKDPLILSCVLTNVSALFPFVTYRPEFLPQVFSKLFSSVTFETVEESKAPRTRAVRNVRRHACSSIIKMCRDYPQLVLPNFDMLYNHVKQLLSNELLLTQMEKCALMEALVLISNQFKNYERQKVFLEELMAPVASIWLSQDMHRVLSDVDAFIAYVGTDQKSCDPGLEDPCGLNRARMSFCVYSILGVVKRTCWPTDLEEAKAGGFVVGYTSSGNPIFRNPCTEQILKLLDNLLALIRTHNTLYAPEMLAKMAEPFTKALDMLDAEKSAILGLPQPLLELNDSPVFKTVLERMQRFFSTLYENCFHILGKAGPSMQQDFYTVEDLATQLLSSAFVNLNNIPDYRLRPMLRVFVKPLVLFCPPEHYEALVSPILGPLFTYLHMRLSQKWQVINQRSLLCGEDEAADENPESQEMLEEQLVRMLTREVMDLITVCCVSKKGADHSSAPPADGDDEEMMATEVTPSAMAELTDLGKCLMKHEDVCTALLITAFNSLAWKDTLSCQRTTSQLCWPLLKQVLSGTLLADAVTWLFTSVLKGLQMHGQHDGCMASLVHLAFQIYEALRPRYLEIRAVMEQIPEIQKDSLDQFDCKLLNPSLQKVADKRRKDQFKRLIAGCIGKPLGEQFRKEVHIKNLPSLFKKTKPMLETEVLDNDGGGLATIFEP
UniProt Q9UGR2: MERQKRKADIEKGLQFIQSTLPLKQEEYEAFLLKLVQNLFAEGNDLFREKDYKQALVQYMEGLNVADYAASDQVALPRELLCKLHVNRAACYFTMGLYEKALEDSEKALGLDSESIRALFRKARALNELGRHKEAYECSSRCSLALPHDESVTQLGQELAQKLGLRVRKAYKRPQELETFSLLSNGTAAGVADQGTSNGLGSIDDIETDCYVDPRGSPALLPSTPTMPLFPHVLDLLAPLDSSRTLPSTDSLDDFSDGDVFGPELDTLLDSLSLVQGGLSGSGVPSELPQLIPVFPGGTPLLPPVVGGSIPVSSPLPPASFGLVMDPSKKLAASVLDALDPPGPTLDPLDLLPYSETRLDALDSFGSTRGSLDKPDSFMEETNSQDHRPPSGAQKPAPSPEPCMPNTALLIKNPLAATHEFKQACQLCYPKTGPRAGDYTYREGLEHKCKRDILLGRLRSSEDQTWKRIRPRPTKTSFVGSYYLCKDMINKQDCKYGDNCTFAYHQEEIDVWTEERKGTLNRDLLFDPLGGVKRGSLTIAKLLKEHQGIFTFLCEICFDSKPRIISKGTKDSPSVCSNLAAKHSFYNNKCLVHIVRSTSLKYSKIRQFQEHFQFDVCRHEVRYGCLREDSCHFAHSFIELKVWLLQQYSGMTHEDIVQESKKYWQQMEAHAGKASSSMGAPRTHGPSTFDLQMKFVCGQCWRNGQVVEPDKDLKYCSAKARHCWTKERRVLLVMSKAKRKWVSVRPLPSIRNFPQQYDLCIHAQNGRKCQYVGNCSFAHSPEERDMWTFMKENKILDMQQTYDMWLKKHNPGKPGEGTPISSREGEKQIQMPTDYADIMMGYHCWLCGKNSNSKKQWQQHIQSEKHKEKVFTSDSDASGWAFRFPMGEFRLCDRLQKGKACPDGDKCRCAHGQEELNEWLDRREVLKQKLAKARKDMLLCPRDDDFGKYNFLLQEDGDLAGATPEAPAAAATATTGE
UniProt Q6FIF0: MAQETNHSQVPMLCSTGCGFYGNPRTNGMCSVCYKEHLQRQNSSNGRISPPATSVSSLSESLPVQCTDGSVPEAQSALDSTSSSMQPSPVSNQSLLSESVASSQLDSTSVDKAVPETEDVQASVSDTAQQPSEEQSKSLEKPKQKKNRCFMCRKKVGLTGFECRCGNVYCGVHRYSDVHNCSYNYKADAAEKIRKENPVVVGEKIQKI
UniProt P13010: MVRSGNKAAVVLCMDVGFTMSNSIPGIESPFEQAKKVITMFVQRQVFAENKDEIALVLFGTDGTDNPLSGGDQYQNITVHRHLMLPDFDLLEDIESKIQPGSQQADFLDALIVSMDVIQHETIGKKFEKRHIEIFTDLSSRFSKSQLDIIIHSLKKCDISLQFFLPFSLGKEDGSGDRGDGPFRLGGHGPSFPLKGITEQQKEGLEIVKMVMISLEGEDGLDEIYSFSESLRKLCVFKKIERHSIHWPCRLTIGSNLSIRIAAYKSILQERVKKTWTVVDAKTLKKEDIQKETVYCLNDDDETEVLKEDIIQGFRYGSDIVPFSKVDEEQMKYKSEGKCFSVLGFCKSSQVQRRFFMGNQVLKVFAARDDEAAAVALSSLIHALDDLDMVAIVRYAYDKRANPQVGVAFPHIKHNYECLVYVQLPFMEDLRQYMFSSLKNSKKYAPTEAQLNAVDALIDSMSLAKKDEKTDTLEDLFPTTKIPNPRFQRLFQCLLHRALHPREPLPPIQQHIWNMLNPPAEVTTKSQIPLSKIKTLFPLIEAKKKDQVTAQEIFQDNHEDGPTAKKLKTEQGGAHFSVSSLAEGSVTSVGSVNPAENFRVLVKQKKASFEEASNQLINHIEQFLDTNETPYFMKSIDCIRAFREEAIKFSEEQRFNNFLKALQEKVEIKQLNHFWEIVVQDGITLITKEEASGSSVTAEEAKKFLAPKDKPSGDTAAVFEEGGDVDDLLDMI

Compound in this assay: Cc1cc(ccc1-c1ccccc1)C(=O)N1CCCN(CC1)C(=O)CCl [compound 10]
Kind of assay: probe-labelled cysteine peptide fold change vs DMSO (competition) (log2 fold change); higher = less target engagement (more negative = stronger competition). Particulars: THP-1, incubation time: 4 h.

Some of the results follow.
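Also: competitive profiling in live THP-1 cells: cysteine peptides tagged with an iodoacetamide desthiobiotin (IA-DTB) probe, intensity after compound treatment relative to DMSO-treated cells.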

As to “ZFAND1_Q8TCF1_28_QRDFLPFVCDDCSGIFCLEHR (UniProt Q8TCF1)”, the “probe-labelled cysteine peptide fold change” value runs as follows: (10 µM) 0.0318; (50 µM) -0.129.

For the target “XPO1_O14980_528_DLLGLCEQK (UniProt O14980)”, the “probe-labelled cysteine peptide fold change” value was -0.246 (10 µM) and -0.874 (50 µM).

As to “ZDHHC21_Q8IVQ6_106_SHHCSR (UniProt Q8IVQ6)”, the “probe-labelled cysteine peptide fold change” value (10 µM) is 0.368 and the “probe-labelled cysteine peptide fold change” value (50 µM) amounted to 0.0748.

For “ZBTB11_O95625_943_DYVPCK (UniProt O95625)”, the “probe-labelled cysteine peptide fold change” value runs as follows: (10 µM) -0.172; (50 µM) -0.425.

Take “ZDHHC13_Q8IUH4_51_EALPLIEDSSNCDIVK (UniProt Q8IUH4)”: the “probe-labelled cysteine peptide fold change” value was -0.351 (10 µM) and -0.0596 (50 µM).

As for “XPOT_O43592_522_FFTVEPQHIPCVLMAFLDHR (UniProt O43592)”, the “probe-labelled cysteine peptide fold change” value is 0.114 (10 µM) and -0.0413 (50 µM).

For the target “XPO7_Q9UIA9_66_GSSSYSQLLAATCLTK (UniProt Q9UIA9)”, the “probe-labelled cysteine peptide fold change” value runs as follows: (10 µM) 0.148; (50 µM) 0.231.

Consider “ZCCHC3_Q9NUD5_238_REQEDCWENFVVLGR (UniProt Q9NUD5)”, for which the “probe-labelled cysteine peptide fold change” value (10 µM) worked out at 0.132 and the “probe-labelled cysteine peptide fold change” value (50 µM) amounted to 0.283.

Consider “ZFC3H1_O60293_241_QIQLELECINKDEK (UniProt O60293)”, for which the “probe-labelled cysteine peptide fold change” value runs as follows: (10 µM) -0.0813; (50 µM) -0.55.

Regarding “ZC3H12D_A2A288_266_CTYGIK (UniProt A2A288)”, the “probe-labelled cysteine peptide fold change” value was 0.0498 (10 µM) and -0.00714 (50 µM).

Regarding “ZC3H11A_O75152_588_GDVASCNTQVAEK (UniProt O75152)”, the “probe-labelled cysteine peptide fold change” value by setting is: (10 µM) -0.233; (50 µM) 0.19.

For the target “XPO5_Q9HAV4_1025_HEDVCTALLITAFNSLAWK (UniProt Q9HAV4)”, the “probe-labelled cysteine peptide fold change” value was determined as 0.149 (10 µM) and 0.00519 (50 µM).

In the case of “ZER1_Q7Z7L7_337_RPLQFLGLFENSLCR (UniProt Q7Z7L7)”, the “probe-labelled cysteine peptide fold change” value runs as follows: (10 µM) -0.124; (50 µM) -0.0583.

On to “ZC3H7B_Q9UGR2_576_DSPSVCSNLAAK (UniProt Q9UGR2)”, for which the “probe-labelled cysteine peptide fold change” value (10 µM) is -0.047 and the “probe-labelled cysteine peptide fold change” value (50 µM) was -0.193.

“XPO5_Q9HAV4_847_FFSTLYENCFHILGK (UniProt Q9HAV4)”: the “probe-labelled cysteine peptide fold change” value by setting is: (10 µM) 0.0606; (50 µM) 0.469.

In the case of “ZFAND6_Q6FIF0_170_CGNVYCGVHR (UniProt Q6FIF0)”, the “probe-labelled cysteine peptide fold change” value reads like this: (10 µM) 0.218; (50 µM) 0.169.

Turning to “ZDHHC12_Q96GR4_102_YCLVLQPLR (UniProt Q96GR4)”, the “probe-labelled cysteine peptide fold change” value by setting is: (10 µM) -0.0118; (50 µM) -0.279.

“ZCCHC3_Q9NUD5_356+366_CGEEGHLSPYCR (UniProt Q9NUD5)”: the “probe-labelled cysteine peptide fold change” value reads like this: (10 µM) -0.00844; (50 µM) -0.0651.

Take “ZC3H13_Q5T200_1666_LSQSSIQQELCVS (UniProt Q5T200)”: the “probe-labelled cysteine peptide fold change” value was -0.178 (10 µM) and 0.201 (50 µM).

“XPO1_O14980_528_DLLGLCEQKR (UniProt O14980)”: the “probe-labelled cysteine peptide fold change” value is, setting by setting: (10 µM) -0.248; (50 µM) -1.11.

In the case of “XRN1_Q8IZH2_1104_PHLLYRPLEQQHGVIPDRDAEFCLFDR (UniProt Q8IZH2)”, the “probe-labelled cysteine peptide fold change” value was -0.0272 (10 µM) and 0.168 (50 µM).

Consider “ZC3H7B_Q9UGR2_617_QFQEHFQFDVCR (UniProt Q9UGR2)”, for which the “probe-labelled cysteine peptide fold change” value stood at 0.128 (10 µM) and 0.388 (50 µM).

As for XPR1_Q9UBH6_62_FFQTCEK (UniProt Q9UBH6), the “probe-labelled cysteine peptide fold change” value is 0.0667 (10 µM) and 0.0284 (50 µM).

As for “ZC3HAV1_Q7Z2W4_798_AYVESICSNNFDSFLHETHENK (UniProt Q7Z2W4)”, the “probe-labelled cysteine peptide fold change” value is, setting by setting: (10 µM) -0.00309; (50 µM) 0.073.

On to “ZCCHC8_Q6NZY4_607_SEAGHASSPDSEVTSLCQK (UniProt Q6NZY4)”, for which the “probe-labelled cysteine peptide fold change” value is, setting by setting: (10 µM) 0.0683; (50 µM) -0.191.

Turning to “XRN1_Q8IZH2_132_FDSNCITPGTEFMAR (UniProt Q8IZH2)”, the “probe-labelled cysteine peptide fold change” value reads like this: (10 µM) 0.0138; (50 µM) 0.168.

As to “ZC3H11A_O75152_588_SVLTPLRGDVASCNTQVAEKPVLTAVPGITR (UniProt O75152)”, the “probe-labelled cysteine peptide fold change” value runs as follows: (10 µM) 0.00554; (50 µM) -0.151.

In the case of “ZFC3H1_O60293_1405_DNPEIWCHYLR (UniProt O60293)”, the “probe-labelled cysteine peptide fold change” value runs as follows: (10 µM) -0.127; (50 µM) -0.124.

Take “XRCC5_P13010_157_CDISLQFFLPFSLGKEDGSGDRGDGPFR (UniProt P13010)”: the “probe-labelled cysteine peptide fold change” value was -0.0173 (10 µM) and -0.353 (50 µM).

In the case of “ZFAND6_Q6FIF0_181_YSDVHNCSYNYK (UniProt Q6FIF0)”, the “probe-labelled cysteine peptide fold change” value (10 µM) was -0.0333 and the “probe-labelled cysteine peptide fold change” value (50 µM) was -0.236.

“XPO5_Q9HAV4_1131_DSLDQFDCK (UniProt Q9HAV4)”: the “probe-labelled cysteine peptide fold change” value (10 µM) is -0.325 and the “probe-labelled cysteine peptide fold change” value (50 µM) was -0.499.

With “XRCC5_P13010_296_ETVYCLNDDDETEVLK (UniProt P13010)”, the “probe-labelled cysteine peptide fold change” value was -0.149 (10 µM) and 0.549 (50 µM).

Turning to “XRN1_Q8IZH2_16_YPCLSEVVK (UniProt Q8IZH2)”, the “probe-labelled cysteine peptide fold change” value is, setting by setting: (10 µM) 0.0766; (50 µM) 0.204.

For “YWHAE_P62258_97_LICCDILDVLDK (UniProt P62258)”, the “probe-labelled cysteine peptide fold change” value was 0.0247 (10 µM) and -0.362 (50 µM).

With “YES1_P07947_255_LTTVCPTVKPQTQGLAK (UniProt P07947)”, the “probe-labelled cysteine peptide fold change” value was -0.195 (10 µM) and -0.29 (50 µM).

“XPO5_Q9HAV4_941_SLLCGEDEAADENPESQEMLEEQLVR (UniProt Q9HAV4)”: the “probe-labelled cysteine peptide fold change” value by setting is: (10 µM) -0.239; (50 µM) -0.228.

Regarding “YARS2_Q9Y2Z4_413_EAPFSEFFLDPGTSVLDTCR (UniProt Q9Y2Z4)”, the “probe-labelled cysteine peptide fold change” value is, setting by setting: (10 µM) -0.158; (50 µM) 0.12.

For “ZBED4_O75132_599_KPTNLGTSCLLR (UniProt O75132)”, the “probe-labelled cysteine peptide fold change” value reads like this: (10 µM) -0.105; (50 µM) -0.465.

Regarding “XRCC5_P13010_346_CFSVLGFCK (UniProt P13010)”, the “probe-labelled cysteine peptide fold change” value (10 µM) is -0.101 and the “probe-labelled cysteine peptide fold change” value (50 µM) was -0.00582.
